No constants are given. Whether binding was seen depends on the method and setting. Some entries that bind do so weakly or less than the wild type.
Target: ERK2-mAG1-PB1 (UniProt P28482)
Assay: homoFluoppi (homo-dimerisation-dependent fluorescent puncta in living cells); Cos-7 cells transiently expressing ERK2-mAG1-PB1, pre-treated with 20 μM DEL22379 for 30 min, then 50 ng/ml EGF

Sequences of proteins named here, by UniProt entry; tags and fusion partners are left off.
UniProt P28482: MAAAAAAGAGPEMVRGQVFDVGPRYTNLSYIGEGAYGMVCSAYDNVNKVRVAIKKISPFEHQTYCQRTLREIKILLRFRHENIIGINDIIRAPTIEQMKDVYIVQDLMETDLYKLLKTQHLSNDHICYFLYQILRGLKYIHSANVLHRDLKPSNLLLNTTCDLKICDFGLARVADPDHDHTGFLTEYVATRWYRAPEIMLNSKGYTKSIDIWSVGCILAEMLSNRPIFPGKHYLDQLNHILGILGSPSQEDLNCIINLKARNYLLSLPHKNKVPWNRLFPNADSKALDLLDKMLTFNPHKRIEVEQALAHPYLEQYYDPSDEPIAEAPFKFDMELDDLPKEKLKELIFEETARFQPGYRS

Substance: ERK2-mAG1-PB1 (from UniProt P28482 1-360) (enzyme)
- binding: binds weakly
